Measurements as given in PubChem BioAssay AID1347421 (Sanford-Burnham Center for Chemical Genomics, 2020).
The full ranking holds about 1,500 compounds; the median of “activity” is about 2, and the lowest 2% start at about -18. The list shows a part of the results. Activity calls are given as the source filed them.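 The calls were made as follows: active = inhibition of at least 40% at 10 µM; inconclusive = no clear call, values can overlap the other calls; inactive = the rest.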

Sequences of proteins named here, by UniProt entry; tags and fusion partners are left off. A change or cut given only in a name is not applied to a line headed by its entry.
UniProt O00391: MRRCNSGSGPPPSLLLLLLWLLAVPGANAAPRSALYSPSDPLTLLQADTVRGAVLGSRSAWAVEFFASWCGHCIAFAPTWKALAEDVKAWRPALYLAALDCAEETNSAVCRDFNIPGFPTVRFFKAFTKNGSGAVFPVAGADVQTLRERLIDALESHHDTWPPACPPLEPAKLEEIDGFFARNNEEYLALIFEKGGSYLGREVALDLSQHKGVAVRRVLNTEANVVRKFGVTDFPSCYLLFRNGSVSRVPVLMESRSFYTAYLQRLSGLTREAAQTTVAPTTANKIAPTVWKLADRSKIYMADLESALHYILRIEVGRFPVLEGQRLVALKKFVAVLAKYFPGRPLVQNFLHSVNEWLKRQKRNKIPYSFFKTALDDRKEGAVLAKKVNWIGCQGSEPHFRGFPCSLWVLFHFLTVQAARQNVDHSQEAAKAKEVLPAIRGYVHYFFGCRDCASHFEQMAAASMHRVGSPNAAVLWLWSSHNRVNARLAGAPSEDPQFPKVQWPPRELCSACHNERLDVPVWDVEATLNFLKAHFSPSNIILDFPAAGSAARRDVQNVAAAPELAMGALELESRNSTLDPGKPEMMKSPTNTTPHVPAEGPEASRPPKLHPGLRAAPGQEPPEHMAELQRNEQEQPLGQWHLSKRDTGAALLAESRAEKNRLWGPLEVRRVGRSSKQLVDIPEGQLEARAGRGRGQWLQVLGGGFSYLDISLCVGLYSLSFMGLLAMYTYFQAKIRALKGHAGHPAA

target: Sulfhydryl oxidase 1 (Homo sapiens) (UniProt O00391); test: QSOX1 enzyme inhibitors, confirmation, biochemical, ROS-Glo luminescence, single concentration (AID 1347421); conditions: recombinant hQSOX1, RNase A substrate, ROS-Glo H2O2 luminescence; at 10 µM;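 also: 0% = DMSO wells with enzyme and 100% = wells lacking QSOX1 enzyme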

Row | Structure (SMILES) | activity
1 | CCc1nc(C)c(C(=O)NC2CCCN(CCCc3ccccc3)C2)o1 (stereo not drawn) | 4.8%
2 | CSc1ccc(CN2CCC(CCC(=O)NCCN(C)C)CC2)cc1 | 1.7%
3 | Cc1nc(C)c(C(=O)NC2CC(=O)N(C3CCCCCC3)C2)s1 (stereo not drawn) | 1.2%
4 | CN(Cc1ccncn1)C(=O)CC1C(=O)NCCN1CC(c1ccccc1)c1ccccc1 (stereo not drawn) | 2%
5 | CC(=O)NCC(=O)N1CCCC(CCc2ccccc2C(F)(F)F)C1 (stereo not drawn) | 8.9%
6 | CN(C)CC(=O)NC1CC(=O)N(CCc2ccccc2)C1 (stereo not drawn) | 18.6%
7 | FC(F)(F)c1cc(-c2ccco2)nc(N2CCCCC2)n1 | inactive: -20.8%
8 | C=CCN(CC=C)C(=O)C1CCN(C2CCN(Cc3cccc(C)n3)CC2)CC1 | 1.9%
9 | Cc1cc(CN2CCCC2c2ccc(C(=O)NCCc3ccccn3)s2)n[nH]1 (stereo not drawn) | 0.3%
10 | COc1ccc(CNCCSC)cc1OCC(O)CN(C)C(C)C (stereo not drawn) | 1.6%
11 | COc1ccc(OC)c(CN2CCOC(Cc3ccc(F)cc3)C2)c1 (stereo not drawn) | 0.9%
12 | Cc1cccc(-n2cc(CN3CCN(C=O)CC3)c(-c3cccc(F)c3)n2)c1 | 5.2%
13 | Cc1noc(C)c1C(=O)NC1CCCCC1C(C)(C)C (stereo not drawn) | inactive: -0.5%
14 | Cc1cc(C)c(C)c(S(=O)(=O)n2nc(C)c(Cl)c2C)c1C | inactive: -17.4%
15 | O=c1c2ccccc2nc(NCCO)n1Cc1ccccc1 | inactive: -20.3%
16 | Nc1ncnc(Nc2cc(Cl)cc(Cl)c2)n1 | inactive: -13.2%
17 | COCC1CCN(C(=O)c2ccc(OC3CCN(C4CCCC4)CC3)c(OC)c2)C1 (stereo not drawn) | inactive: -1.3%
18 | Cc1cc(C)n(CC(=O)NC2CCCN(C3CCCCCC3)C2)n1 (stereo not drawn) | inactive: -3.4%
19 | CC(NC(=O)CSc1nc(O)cc(=O)[nH]1)c1ccccc1 (stereo not drawn) | inactive: -17.8%
20 | COC(=O)[C@@H](C)NC(=O)c1coc(COc2ccc3sc(C)nc3c2)n1 | 2.2%
21 | CN(Cc1cccs1)C(=O)c1ccc(OC2CCN(S(C)(=O)=O)CC2)c(Cl)c1 | 12.2%
22 | O=C1N(CC2CCCCC2)CCCC1(O)CN1CCCOCC1 (stereo not drawn) | 4.1%

Row | Structure (SMILES) | activity
23 | Cc1ccn2c(CNCCN(C)C)c(C(=O)N3CCCCCC3)nc2c1 | inactive: -0.2%
24 | O=C1CCCCN1CC(=O)N1CCOC(Cc2cccc(C(F)(F)F)c2)C1 (stereo not drawn) | 0.8%
25 | CNc1cc(C(=O)N2CCOC(Cc3ccccc3Cl)C2)ccn1 (stereo not drawn) | 2.7%
26 | O=c1cc(O)c2ccccc2n1Cc1ccccc1Cl | inactive: -3.9%
27 | CCN(CC)S(=O)(=O)Cc1ccccc1Cl | inactive: -19.9%
28 | Cc1cc(C)n(CCNC(=O)Nc2nnc(-c3ccco3)s2)n1 | 3.1%
29 | COCCNC(=O)CCC1CCN(Cc2ccc(COC)o2)CC1 | inactive: -1.5%
30 | Cc1cc(C)n2nc(N3C(=O)CCC3=O)nc2n1 | inactive: -13%
31 | COc1cccc(CC2CN(C(=O)c3oc(C)cc3C)CCO2)c1 (stereo not drawn) | 5.5%
32 | CC(C)CCCC1CN(C(=O)c2ccc(N3CCN(C)CC3)cc2)CCO1 (stereo not drawn) | 6.6%
33 | CCn1cc(CN2CCCC(CCC(=O)N3CCN(Cc4ccccc4)CC3)C2)cn1 (stereo not drawn) | 8.2%
34 | Cc1ncsc1CCCNCc1cccc(OCC(O)CN2CCOCC2)c1 (stereo not drawn) | 8.2%
35 | N#CCCCN1C(=O)C(O)(CC(=O)c2cccs2)c2ccccc21 (stereo not drawn) | 0.3%
36 | O=C(c1ccc(OC2CCN(Cc3ccccn3)CC2)cc1)N1CCCCCCC1 | 3.4%
37 | O=C(NC(=O)N1CCCCCC1)c1ccc(Cl)cc1 | inactive: -10.3%
38 | COc1cc(CNCCOc2cccnc2)ccc1OCC(O)CN(C)C(C)C (stereo not drawn) | inactive: -3.2%
39 | COc1ccc2c(C(=O)NC(C)C)cc(-c3cnn(C)c3)nc2c1 | 4%
40 | CC(=O)c1ccc(-c2nnc(CCC(=O)NC(C)Cc3ncccc3C)o2)s1 (stereo not drawn) | 6.1%
41 | O=C(CCc1ccncc1)N1CCOC(Cc2cccc(C(F)(F)F)c2)C1 (stereo not drawn) | 10.1%
42 | COC(=O)[C@@H]1CCCN1Cc1nc(-c2cccc(C(F)(F)F)c2)oc1C | inactive: -0.6%
43 | CN(CCc1ccccn1)C(=O)CCC1CCCN(C(=O)Cc2cccnc2)C1 (stereo not drawn) | 4.4%
44 | O=C(O)c1ccc(CNCc2ccsc2)cc1 | inactive: -9%

Row | Structure (SMILES) | activity
45 | O=C(CCCn1nnnc1CN1CCOCC1)NCCC1=CCCCC1 | 8.8%
46 | CCOC(=O)N1CCC(N2CCOC(CC3CCCCC3)C2)CC1 (stereo not drawn) | 6.1%
47 | CC(C)c1nc(CNCc2c(C(=O)N3C[C@@H](C)O[C@@H](C)C3)nc3sccn23)cs1 | 4.9%
48 | O=C(c1cc[n+]([O-])cc1)N1CCOC(Cc2ccccc2Cl)C1 (stereo not drawn) | 3%
49 | Cc1cc(=O)n2[nH]c(NC(=O)Cc3ccc(Cl)cc3)nc2n1 | inactive: -15.3%
50 | COc1cccc(-n2cc(CNC(=O)C3CCC(=O)N(C4CC4)C3)cn2)c1 (stereo not drawn) | 1%
51 | Clc1ccc(-c2noc(CN3CCC(N4CCCC4)CC3)n2)cc1 | 6.2%
52 | COc1cc(-c2nc(CN3CCN(C(=O)c4ccccc4OC)CC3)c(C)o2)ccc1F | 5.8%
53 | CC(C)n1c(CN2CCOCC2)nc2ccccc21 | 0.4%
54 | COCC(C)NC(=O)C1CCN(S(=O)(=O)c2ccc(F)cc2)CC1 (stereo not drawn) | 9.6%
55 | COc1cc(CNCCN2CCCCC2=O)ccc1OCC(O)CN1CCCC1 (stereo not drawn) | 3.1%
56 | Cc1cc(C)nc(NCCC(=O)O)n1 | inactive: -9.6%
57 | CCN(Cc1nccn1C)C(=O)c1cc(-c2cn[nH]c2)nc2cc(F)ccc12 | 3%
58 | Cc1cc(C)n(CCCNC(=O)C2CCC(=O)N(CCCN3CCCC3=O)C2)n1 (stereo not drawn) | 2.7%
59 | COc1ccc(N2CCN(Cc3nc(N)nc(Nc4ccc(F)cc4)n3)CC2)cc1 | 1.9%
60 | CC(C)(C)CN1CCCC(O)(CNCc2ccncc2)C1=O (stereo not drawn) | inactive: -0.9%
61 | COc1cccc(CNCC2CCOCC2)c1OCC(O)CN1CCOCC1 (stereo not drawn) | inactive: -2.1%
62 | CSc1ccc(C(=O)C2CCCN(C(=O)c3cc(C)oc3C)C2)cc1 (stereo not drawn) | 1.7%
63 | CCCn1cc(CN2CCC(CCC(=O)NCC3CCCO3)CC2)c(C)n1 (stereo not drawn) | 3.1%
64 | Cc1cc(C)c(C(=O)N2CCCC(CCC(=O)N(C)CCc3ccccn3)C2)c(=O)[nH]1 (stereo not drawn) | 7.3%
65 | CC(C)Cc1cc(CN2CCN(Cc3ccc(F)c(F)c3)C(CCO)C2)[nH]n1 (stereo not drawn) | 0.4%
66 | O=C(c1cc2ccccc2oc1=O)N1CCOC(CC2CCCCC2)C1 (stereo not drawn) | 0.4%

Row | Structure (SMILES) | activity
67 | Cc1cnccc1CN(C)C(=O)c1cc(-c2cn[nH]c2)nc2cc(F)ccc12 | 4.2%
68 | COC(=O)CCC(=O)N1CCC2(CCCN(Cc3ccc(C(C)C)cc3)C2)C1 (stereo not drawn) | 5.5%
69 | O=C(CSc1nnc(-c2ccco2)o1)Nc1ccc(Br)cc1 | 2.3%
70 | COc1ccccc1CN1CCN(Cc2ccc(F)c(F)c2)C(CCO)C1 (stereo not drawn) | 0.3%
71 | COc1ccc(CNCCCN2CCOCC2)cc1OCC(O)CN1CCCC1 (stereo not drawn) | 4.6%
72 | COc1ccc(F)c(CN2CCCC3(CCN(S(=O)(=O)N(C)C)C3)C2=O)c1 (stereo not drawn) | 0.3%
73 | COc1ccc(OC)c(Nc2cc(C)nc3ncnn23)c1 | 0.6%
74 | Cc1[nH]n2c(=O)c3c(nc2c1-c1ccc(F)cc1)CCCC3 | inactive: -2%
75 | O=C1CN(Cc2cn(Cc3ccccc3)nc2-c2cc3ccccc3o2)CCN1 | 6.5%
76 | CC(C)n1cc(-c2cc(C(=O)N3CCCN(C)CC3)c3cc(F)ccc3n2)cn1 | inactive: -1.6%
77 | CCOC(=O)c1oc2ccc(Cl)cc2c1CN1CCN(c2ncccn2)CC1 | 2.1%
78 | CCNC(=O)c1cccc(OC(C)C)c1 | 6.5%
79 | O=C(CC1CNCCO1)N1CCc2[nH]nc(-c3ccc(Cl)c(Cl)c3)c2C1 (stereo not drawn) | 9.3%
80 | Cc1nnsc1C(=O)NC1CC(=O)N(CCc2ccccc2)C1 (stereo not drawn) | 2%
81 | Cc1ccc(CN2CCN(Cc3ccc4c(c3)OCCO4)CC2CCO)o1 (stereo not drawn) | inactive: -4.2%
82 | COCCNC(=O)CCC1CCN(Cc2ccc3cc(Cl)ccc3n2)CC1 | 4.1%
83 | CN(CCc1ccccn1)Cc1nc(-c2ccc3c(c2)OCO3)no1 | 4.2%
84 | COc1ccc(CNCCNC(C)=O)cc1OCC(O)CN(C)Cc1ccccc1 (stereo not drawn) | 1.2%
85 | COc1ccc(NC(=O)NC2CC(=O)N(CC(C)(C)C)C2)c(OC)c1 (stereo not drawn) | inactive: -1.6%
86 | C1=Nn2c(nnc2-c2ccncc2)SC(c2ccccc2)=C1 | 2.7%
87 | O=C(Cc1cccc(Cl)c1)NC1CCCN(c2ncccn2)C1 (stereo not drawn) | 2.5%
88 | CC(C)(C)NC(=O)CN1C(=O)CCC1=O | inactive: -0.4%

Grouped by structure: the compounds so far with an NH in an aromatic ring.
Row | Structure (SMILES) | activity
9 | Cc1cc(CN2CCCC2c2ccc(C(=O)NCCc3ccccn3)s2)n[nH]1 (stereo not drawn) | 0.3%
19 | CC(NC(=O)CSc1nc(O)cc(=O)[nH]1)c1ccccc1 (stereo not drawn) | inactive: -17.8%
49 | Cc1cc(=O)n2[nH]c(NC(=O)Cc3ccc(Cl)cc3)nc2n1 | inactive: -15.3%
57 | CCN(Cc1nccn1C)C(=O)c1cc(-c2cn[nH]c2)nc2cc(F)ccc12 | 3%
64 | Cc1cc(C)c(C(=O)N2CCCC(CCC(=O)N(C)CCc3ccccn3)C2)c(=O)[nH]1 (stereo not drawn) | 7.3%
65 | CC(C)Cc1cc(CN2CCN(Cc3ccc(F)c(F)c3)C(CCO)C2)[nH]n1 (stereo not drawn) | 0.4%
67 | Cc1cnccc1CN(C)C(=O)c1cc(-c2cn[nH]c2)nc2cc(F)ccc12 | 4.2%
74 | Cc1[nH]n2c(=O)c3c(nc2c1-c1ccc(F)cc1)CCCC3 | inactive: -2%
79 | O=C(CC1CNCCO1)N1CCc2[nH]nc(-c3ccc(Cl)c(Cl)c3)c2C1 (stereo not drawn) | 9.3%

Next entries follow:

Row | Structure (SMILES) | activity
89 | COc1ccccc1CCN1CCC(CN(C)C(=O)CCN2CCCO2)CC1 | inactive: -1.9%
90 | COc1ccc(N2CCN(C(=O)CNC(=O)c3ccc(Cl)cc3)CC2)cc1 | inactive: -17.6%
91 | Cc1ccc2c(C(=O)NC3CCN(C)C3=O)cc(-c3cnn(C)c3)nc2c1 (stereo not drawn) | 5.5%
92 | CCn1ccnc1CN1CCCC(N(C)CCc2ccccc2)C1 (stereo not drawn) | 3.3%
93 | Cc1cc(Br)c(S(=O)(=O)NCc2ccncc2)cc1C | 3.4%
94 | O=S(=O)(c1ccsc1)N1CCc2onc(-c3ccccc3)c2C1 | inactive: -8.6%
95 | O=C(NC1CCCN(C2CCCCCC2)C1)C1CCCC1 (stereo not drawn) | 9%
96 | CC(=O)N1CCN(c2ncccc2CNCc2ccc(-c3ccco3)cc2)CC1 | inactive: -3.4%
97 | O=C(NC1CC(=O)N(Cc2cccc3ccccc23)C1)c1ccncc1 (stereo not drawn) | 8.9%
98 | Cc1ccccc1CC(=O)NCC(C)C | inactive: -16%
99 | Cc1cc(NC(=O)CSc2ccccc2N)ccc1Cl | inactive: -8%
100 | CC(=O)c1cc(CC(=O)N2CCCC(CCC(=O)NC3CC3)C2)cs1 (stereo not drawn) | 1.3%
101 | O=C(c1cn(Cc2ccc(Cl)cc2)nn1)N1CCCCCCC1 | 0.2%
102 | COCCCn1c(CN2CCC(N3CCSCC3)CC2)cnc1S(C)(=O)=O | 10.1%
103 | COc1cccc(CN2CCCC(O)(CNC3CCCC3)C2=O)c1 (stereo not drawn) | 2.1%
104 | CCN(CC)CCNCc1ccc(OCC(O)CN(C)C(C)C)c(OC)c1 (stereo not drawn) | 0.6%
105 | O=C(CSc1ncccn1)N1CCc2onc(-c3ccc(Cl)cc3)c2C1 | 10.7%
106 | COc1ccc(CNCc2ccc(C)o2)c(OCC(O)CN2CCCC2)c1 (stereo not drawn) | 2.2%
107 | COc1cc(CNCCC(C)C)ccc1OCC(O)CN1CCOCC1 (stereo not drawn) | 4.7%
108 | COC(=O)CCC(C)N1CCC(CCC(=O)N2CCN(c3ccccc3)CC2)CC1 (stereo not drawn) | 4.5%

Some of the entries above in a different format.
Row	Structure (SMILES)	activity
92	CCn1ccnc1CN1CCCC(N(C)CCc2ccccc2)C1 (stereo not drawn)	3.3%
97	O=C(NC1CC(=O)N(Cc2cccc3ccccc23)C1)c1ccncc1 (stereo not drawn)	8.9%
108	COC(=O)CCC(C)N1CCC(CCC(=O)N2CCN(c3ccccc3)CC2)CC1 (stereo not drawn)	4.5%
